Test results from patent publication US8420621B2, “Methods of using gamma cyclodextrin to control blood glucose and insulin secretion” (Abbott Laboratories, priority 2004, dated 2013).
Some results were stated once for a whole list of compounds, not compound by compound.

Test system: healthy adult subjects
Assay: Clinical study: gastrointestinal tolerance, stool frequency and consistency
Type: in vivo, human
Details: 50 g oral
Method: For the pre-study tolerance test, subjects were instructed to not consume anything the day before that was known by them to cause gastrointestinal symptoms. They also completed an overnight 10-16 hour fast. The morning of the test visit, subjects reported to the study site and consumed 8 fl oz of one of the two study beverages within 10 minutes. The study beverage contained either 25 […] of maltodextrin or 25 grams of gamma-cyclodextrin. Subjects then resumed fasting. Subjects were allowed to leave the study site after the beverage had been consumed, however they were instructed to remain fasting for three hours from the time they began drinking the beverage. Subjects recorded gastrointestinal tolerance symptoms and stool frequency and consistency for 24 hours from the time they began drinking the study beverage. Upon subject completion of the gastrointestinal tolerance symptoms and stool frequency and consistency forms, the data were reviewed for signs of abnormal tolerance by a physician. The purpose of this symptom review was to determine if the product was generally well-tolerated. […] After the 180-minute blood and breath samples were collected, the subject was allowed to leave the study site and collect the remaining breath samples (hours 4-8) on their own. During the remainder of the breath collection period, the subject was instructed to refrain from sleep and exercise. […]

SMILES: OC[C@H]1O[C@@H]2O[C@H]3[C@H](O)[C@@H](O)[C@@H](O[C@H]4[C@H](O)[C@@H](O)[C@@H](O[C@H]5[C@H](O)[C@@H](O)[C@@H](O[C@H]6[C@H](O)[C@@H](O)[C@@H](O[C@H]7[C@H](O)[C@@H](O)[C@@H](O[C@H]8[C@H](O)[C@@H](O)[C@@H](O[C@H]9[C@H](O)[C@@H](O)[C@@H](O[C@H]1[C@H](O)[C@H]2O)O[C@@H]9CO)O[C@@H]8CO)O[C@@H]7CO)O[C@@H]6CO)O[C@@H]5CO)O[C@@H]4CO)O[C@@H]3CO [Gamma-Cyclodextrin, Gamma-cyclodextrin]
- Intensity and frequency of abdominal cramping, distention, flatulence (first 24 hours) and of all symptoms (second 24 hours): less than 1.0 on a 10 point subjective rating scale
